From the supplement of paper PMC10849652
The other results are listed elsewhere or left out.

Protein sequences, listed by entry. Tags and fused reporters are not part of them. Lines headed by an entry give the natural chain unless they say otherwise; changes in a name come on top.
UniProt Q8NBQ5: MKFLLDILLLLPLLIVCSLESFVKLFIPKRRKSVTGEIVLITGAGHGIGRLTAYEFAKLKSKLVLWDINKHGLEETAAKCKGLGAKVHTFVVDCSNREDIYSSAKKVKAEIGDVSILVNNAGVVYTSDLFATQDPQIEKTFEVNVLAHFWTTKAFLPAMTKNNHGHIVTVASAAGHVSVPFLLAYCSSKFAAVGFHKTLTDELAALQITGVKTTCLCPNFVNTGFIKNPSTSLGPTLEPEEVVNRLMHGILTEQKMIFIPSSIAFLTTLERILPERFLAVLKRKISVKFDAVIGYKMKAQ
UniProt O43390: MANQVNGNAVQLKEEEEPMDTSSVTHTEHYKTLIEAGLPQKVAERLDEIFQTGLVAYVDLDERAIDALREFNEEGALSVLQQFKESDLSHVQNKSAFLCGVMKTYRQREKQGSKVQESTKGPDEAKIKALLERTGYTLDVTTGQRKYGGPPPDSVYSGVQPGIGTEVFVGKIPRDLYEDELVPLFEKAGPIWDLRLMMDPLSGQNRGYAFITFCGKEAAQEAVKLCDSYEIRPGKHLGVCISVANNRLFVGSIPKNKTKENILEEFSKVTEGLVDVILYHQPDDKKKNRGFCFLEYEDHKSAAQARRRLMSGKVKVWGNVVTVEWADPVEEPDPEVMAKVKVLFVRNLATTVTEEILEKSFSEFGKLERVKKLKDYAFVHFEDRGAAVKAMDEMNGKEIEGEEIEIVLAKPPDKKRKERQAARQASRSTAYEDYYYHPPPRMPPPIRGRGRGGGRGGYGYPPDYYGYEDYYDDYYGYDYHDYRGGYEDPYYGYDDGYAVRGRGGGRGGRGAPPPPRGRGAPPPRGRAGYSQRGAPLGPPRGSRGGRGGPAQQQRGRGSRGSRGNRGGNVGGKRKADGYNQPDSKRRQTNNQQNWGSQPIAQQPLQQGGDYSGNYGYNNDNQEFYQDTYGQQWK
UniProt O14979: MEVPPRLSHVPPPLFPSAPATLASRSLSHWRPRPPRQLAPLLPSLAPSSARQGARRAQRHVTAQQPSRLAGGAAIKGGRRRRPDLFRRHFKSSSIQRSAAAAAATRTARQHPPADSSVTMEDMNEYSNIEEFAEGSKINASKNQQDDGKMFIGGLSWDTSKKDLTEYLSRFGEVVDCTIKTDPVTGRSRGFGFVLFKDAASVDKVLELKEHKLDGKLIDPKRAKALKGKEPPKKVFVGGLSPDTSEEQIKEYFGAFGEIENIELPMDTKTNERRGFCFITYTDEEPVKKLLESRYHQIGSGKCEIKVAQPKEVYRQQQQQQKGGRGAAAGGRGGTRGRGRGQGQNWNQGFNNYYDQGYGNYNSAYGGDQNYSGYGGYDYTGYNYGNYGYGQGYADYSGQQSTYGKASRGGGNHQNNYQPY
UniProt P22626: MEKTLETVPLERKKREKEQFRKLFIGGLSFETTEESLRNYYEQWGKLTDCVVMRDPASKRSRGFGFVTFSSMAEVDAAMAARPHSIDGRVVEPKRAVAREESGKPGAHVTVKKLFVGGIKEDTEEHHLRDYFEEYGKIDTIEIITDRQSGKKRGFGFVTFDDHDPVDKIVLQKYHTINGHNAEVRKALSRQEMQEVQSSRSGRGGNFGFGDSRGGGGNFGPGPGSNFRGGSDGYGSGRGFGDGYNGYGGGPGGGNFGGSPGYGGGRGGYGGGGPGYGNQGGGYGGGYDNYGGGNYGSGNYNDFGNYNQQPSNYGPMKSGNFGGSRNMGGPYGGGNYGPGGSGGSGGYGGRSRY
UniProt Q9NQE9: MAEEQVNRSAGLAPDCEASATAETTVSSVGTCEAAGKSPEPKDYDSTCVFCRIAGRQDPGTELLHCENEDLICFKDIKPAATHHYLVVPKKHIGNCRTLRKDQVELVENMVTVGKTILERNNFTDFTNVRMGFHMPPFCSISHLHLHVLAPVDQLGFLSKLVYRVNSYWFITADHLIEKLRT
UniProt O75146: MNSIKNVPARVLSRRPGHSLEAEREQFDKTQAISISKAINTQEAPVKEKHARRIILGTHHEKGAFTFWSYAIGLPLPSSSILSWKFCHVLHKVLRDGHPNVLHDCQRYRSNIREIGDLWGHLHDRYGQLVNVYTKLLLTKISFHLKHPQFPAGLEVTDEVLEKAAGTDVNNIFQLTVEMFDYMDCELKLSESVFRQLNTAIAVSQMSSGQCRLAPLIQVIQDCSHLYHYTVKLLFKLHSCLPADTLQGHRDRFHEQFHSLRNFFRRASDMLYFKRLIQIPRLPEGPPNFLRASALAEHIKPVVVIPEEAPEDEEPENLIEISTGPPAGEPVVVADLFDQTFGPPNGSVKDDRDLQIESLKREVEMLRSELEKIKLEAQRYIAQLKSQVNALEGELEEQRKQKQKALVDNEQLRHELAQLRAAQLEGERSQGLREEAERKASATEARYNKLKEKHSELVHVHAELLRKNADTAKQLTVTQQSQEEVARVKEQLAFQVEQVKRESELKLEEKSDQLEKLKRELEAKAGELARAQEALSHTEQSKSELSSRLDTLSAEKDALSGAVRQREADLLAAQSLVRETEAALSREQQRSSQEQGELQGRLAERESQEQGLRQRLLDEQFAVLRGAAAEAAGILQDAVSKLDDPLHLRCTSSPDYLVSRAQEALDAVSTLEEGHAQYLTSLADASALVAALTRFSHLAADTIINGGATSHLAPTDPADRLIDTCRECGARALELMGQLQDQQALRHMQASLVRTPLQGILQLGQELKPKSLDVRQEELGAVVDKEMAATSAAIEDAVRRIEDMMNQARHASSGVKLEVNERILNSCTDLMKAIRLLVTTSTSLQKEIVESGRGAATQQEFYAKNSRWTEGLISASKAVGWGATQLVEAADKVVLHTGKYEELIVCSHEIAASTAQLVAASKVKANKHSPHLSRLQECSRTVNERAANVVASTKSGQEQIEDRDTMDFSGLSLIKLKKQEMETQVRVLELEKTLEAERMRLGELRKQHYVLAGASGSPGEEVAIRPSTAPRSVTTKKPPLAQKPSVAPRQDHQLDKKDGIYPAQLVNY

Assays:
Assay in all cases: log2 fold change, soluble protein after heating vs DMSO (PISA); higher = thermal stabilisation; K562 lysate, 10 uM; active = over 0.2 and 3.5 SD of the protein, either way, in both replicates (recomputed)
lapatinib = compound: CS(=O)(=O)CCNCc1ccc(-c2ccc3ncnc(Nc4ccc(OCc5cccc(F)c5)c(Cl)c4)c3c2)o1 [lapatinib]
Method in brief: (§1)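 The values are log-two fold changes in thermal stability compared with solvent controls and come from duplicates. They were obtained by TMTpro 16plex LC-MS/MS, with channel sums equalised, on the supernatant after 21,000xg for 90 min. That supernatant came from crude K562 extract at 1 mg/mL protein treated with 10 μM compound for 30 min, heated for 3 min across 48°C-58°C, pooled and brought to 0.5% NP-40 at 4°C.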

pictilisib = compound: CS(=O)(=O)N1CCN(Cc2cc3nc(-c4cccc5[nH]ncc45)nc(N4CCOCC4)c3s2)CC1 [pictilisib]
Method in brief: as §1

crizotinib = compound: C[C@@H](Oc1cc(-c2cnn(C3CCNCC3)c2)cnc1N)c1c(Cl)ccc(F)c1Cl [crizotinib]
Method in brief: as §1

[1] = compound: C[C@H](C1=CC=C(C=C1)C(=O)NC2=C3C=CNC3=NC=C2)N
Method in brief: as §1

duvelisib = compound: C[C@H](Nc1ncnc2nc[nH]c12)c1cc2cccc(Cl)c2c(=O)n1-c1ccccc1 [duvelisib]
Method in brief: as §1

gandotinib = compound: Cc1cc(Nc2cc(CN3CCOCC3)c3nc(C)c(Cc4ccc(Cl)cc4F)n3n2)n[nH]1 [gandotinib]
Method in brief: as §1

tozasertib = compound: Cc1cc(Nc2cc(N3CCN(C)CC3)nc(Sc3ccc(NC(=O)C4CC4)cc3)n2)n[nH]1 [tozasertib]
Method in brief: as §1

doramapimod = compound: Cc1ccc(-n2nc(C(C)(C)C)cc2NC(=O)Nc2ccc(OCCN3CCOCC3)c3ccccc23)cc1 [doramapimod]
Method in brief: as §1

bafetinib = compound: Cc1ccc(NC(=O)c2ccc(CN3CC[C@H](N(C)C)C3)c(C(F)(F)F)c2)cc1Nc1nccc(-c2cncnc2)n1 [bafetinib]
Method in brief: as §1

[2] = compound: Cc1cccc(CC(=O)N2CCc3c2ccc(-c2cn(C)c4ncnc(N)c24)c3F)n1
Method in brief: as §1

nilotinib = compound: Cc1cn(-c2cc(NC(=O)c3ccc(C)c(Nc4nccc(-c5cccnc5)n4)c3)cc(C(F)(F)F)c2)cn1 [nilotinib]
Method in brief: as §1

[3] = compound: Cc1nc(Nc2n[nH]c3c2CN(C(=O)N[C@H](CN(C)C)c2ccccc2)C3(C)C)c2sccc2n1
Method in brief: as §1

dasatinib = compound: Cc1nc(Nc2ncc(C(=O)Nc3c(C)cccc3Cl)s2)cc(N2CCN(CCO)CC2)n1 [dasatinib]
Method in brief: as §1

[4] = compound: Cc1ncc(-c2ccnc(Nc3ccc(S(C)(=O)=O)cc3)n2)n1C(C)C
Method in brief: as §1

[5] = compound: Cn1cc(-c2ccc3c(c2)CCN3C(=O)Cc2cccc(C(F)(F)F)c2)c2c(N)ncnc21
Method in brief: as §1

quisinostat = compound: Cn1cc(CNCC2CCN(c3ncc(C(=O)NO)cn3)CC2)c2ccccc21 [quisinostat]
Method in brief: as §1

tipifarnib = compound: Cn1cncc1[C@@](N)(c1ccc(Cl)cc1)c1ccc2c(c1)c(-c1cccc(Cl)c1)cc(=O)n2C [tipifarnib]
Method in brief: as §1

[6] = compound: NC(=O)Nc1cc(-c2cccc(F)c2)sc1C(=O)N[C@H]1CCCNC1
Method in brief: as §1

[7] = compound: NC(=O)c1cnc(N[C@@H]2CCCC[C@@H]2N)nc1Nc1cccc(-n2nccn2)c1
Method in brief: as §1

[8] = compound: NC1(c2ccc(-c3nc4ccn5c(=O)[nH]nc5c4cc3-c3ccccc3)cc2)CCC1
Method in brief: as §1

Measured: log2 fold change

HSD17B11 (UniProt Q8NBQ5)
inactive: lapatinib 0.018 | pictilisib -0.008 | crizotinib 0.053 | [1] -0.015 | duvelisib 0.055 | gandotinib 0.024 | tozasertib 0.019 | doramapimod 0.002 | bafetinib -0.001 | [2] 0.045 | nilotinib -0.025 | [3] -0.041 | dasatinib -0.014 | [4] 0.001 | [5] 0.012 | quisinostat 0.038 | tipifarnib 0.015 | [6] -0.003 | [7] -0.027 | [8] 0.009

HERC2 (UniProt O95714)
inactive: lapatinib -0.001 | pictilisib -0.007 | crizotinib -0.055 | [1] -0.041 | duvelisib 0.023 | gandotinib -0.007 | tozasertib 0.022 | doramapimod 0.058 | bafetinib -0.15 | [2] 0.153 | nilotinib -0.077 | [3] 0.017 | dasatinib 0.032 | [4] -0.034 | [5] 0.118 | quisinostat -0.061 | tipifarnib 0.007 | [6] 0.028 | [7] -0.047 | [8] 0.085

HNRNPR isoform 2 (UniProt O43390)
inactive: lapatinib 0.003 | pictilisib -0.001 | crizotinib -0.014 | [1] 0.008 | duvelisib 0.001 | gandotinib -0.048 | tozasertib 0.018 | doramapimod 0.001 | bafetinib 0.012 | [2] -0.021 | nilotinib -0.031 | [3] 0.002 | dasatinib -0.003 | [4] -0.017 | [5] -0.002 | quisinostat 0.002 | tipifarnib 0.02 | [6] -0.028 | [7] 0.011 | [8] -0.006

HNRNPDL (UniProt O14979)
inactive: lapatinib 0.04 | pictilisib -0.002 | crizotinib -0.005 | [1] 0.016 | duvelisib 0.04 | gandotinib -0.025 | tozasertib -0.056 | doramapimod 0.104 | bafetinib 0.072 | [2] -0.035 | nilotinib -0.208 | [3] 0.036 | dasatinib 0.016 | [4] -0.018 | [5] -0.005 | quisinostat 0.074 | tipifarnib -0.002 | [6] -0.062 | [7] -0.008 | [8] 0.004

HNRNPA2B1 (UniProt P22626)
inactive: lapatinib 0.015 | pictilisib 0.015 | crizotinib 0.013 | [1] -0.015 | duvelisib 0.004 | gandotinib -0.002 | tozasertib 0.019 | doramapimod -0.011 | bafetinib 0.011 | [2] 0.025 | nilotinib -0.055 | [3] -0.008 | dasatinib 0.018 | [4] -0.003 | [5] 0.009 | quisinostat 0.044 | tipifarnib -0.012 | [6] -0.014 | [7] -0.009 | [8] -0.034

HINT3 (UniProt Q9NQE9)
inactive: lapatinib 0.033 | pictilisib 0.009 | crizotinib -0.045 | [1] 0.007 | duvelisib 0.017 | gandotinib -0.042 | tozasertib 0.084 | doramapimod -0.005 | bafetinib -0.027 | [2] -0.008 | nilotinib 0.095 | [3] 0.038 | dasatinib -0.028 | [4] -0.019 | [5] -0.022 | quisinostat -0.091 | tipifarnib -0.015 | [6] 0.028 | [7] 0.003 | [8] 0.013

HIP1R (UniProt O75146)
inactive: lapatinib -0.022 | pictilisib -0.032 | crizotinib -0.028 | [1] 0.047 | duvelisib -0.009 | gandotinib -0.016 | tozasertib 0.005 | doramapimod -0.04 | bafetinib -0.046 | [2] -0.006 | nilotinib -0.033 | [3] 0.007 | dasatinib -0.036 | [4] 0.011 | [5] -0.035 | quisinostat -0.031 | tipifarnib 0.001 | [6] 0.007 | [7] 0.013 | [8] -0.018
